Assay: Color contrast of chromogen on blood plate

For `Oc1c[nH]c2ccc(Br)c(Cl)c12` [5-Bromo-4-chloro-3-indoxyl], the “Contrast on Blood Plate” value was “Good” and the Colony (colony color of chromogen) was “blue”.

Source: patent US20020086278A1, “CHROMOGENIC MEDIA CONTAINING BLOOD OR HEMIN” (priority 1999, published 2002)
